# Hit rate of the full screen: of about 330,000 compounds, about 7,700 (2.3%) were called active. The inconclusive results got no clear call from the source; some entries with a clear call stand among them for comparison. Calls come from the whole dose curve; as a rule, active = well fitted inhibition curve with a large enough effect; inconclusive = small, poorly fitted or top-dose-only effect, or effect the other way; inactive = flat fitted curve, though single readings scatter. Potencies of inconclusive entries are doubtful fits and often do not repeat.
# Assay: qHTS screen for small molecules that inhibit ELG1-dependent DNA repair in human embryonic kidney (HEK293T) cells expressing luciferase-tagged ELG1; note: nearly all actives have a fitted effect of over 55% in size
# Conditions: HEK293T ELG1-luciferase reporter, luminescence, 16 h, DNA damage induced by 5-fluorouridine; series mostly up to 46.1 µM
# How it was run: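 5-Fluorouridine DNA damage + compound/DMSO, 2,000 cells/well, 16 h, 37 °C/5% CO2. ONE-Glo, 30 min RT, luminescence. Readout = decrease in reporter signal.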
# Potency is the fitted concentration of half-maximal effect.
row,Structure (SMILES),Potency
1,O=C(c1ccc(OC2CCN(Cc3ccc(F)cc3)CC2)cc1)N1CCCC1,"inconclusive: 23.1 µM [activator, partial curve, poor fit]"
2,COc1cccc(Nc2nnc(SCc3nc4ccccc4s3)s2)c1,"inconclusive: 14.6 µM [activator, partial curve]"
3,CCOC(=O)N1CCC(NC(=O)Cc2ccccc2)CC1,"inconclusive: 32.6 µM [activator, partial curve, poor fit]"
4,CN(CC(=O)Nc1ccccc1Cl)C(=O)CCNC(=O)Nc1ccccc1,"inconclusive: 29.1 µM [inhibitor, single point]"
5,CC(=O)Oc1ccc(C(=O)[C@H]2[C@H]3C(=O)N(c4ccc5ccccc5c4)C(=O)[C@H]3[C@@H]3C=CC=NN32)cc1,"inconclusive: 29.1 µM [inhibitor, single point]"
6,Cc1cc(C)n(-c2cc(Oc3ccccc3)ncn2)n1,"inconclusive: 18.4 µM [activator, single point]"
7,CCc1ccccc1OCC(=O)Nc1nc(-c2cccnc2)cs1,inactive
8,CC(C(=O)NCC1CCCCC1)N(C)CC(=O)Nc1ccc(N2CCOCC2)cc1 (stereo not drawn),inactive
9,CCN1/C(=C\C=C(C(C)=O)C(C)=O)Sc2ccccc21,"inconclusive: 29.1 µM [activator, single point]"
10,O=C(CC(=O)NCCc1ccccc1)NCCc1ccccc1,inactive
11,Cc1onc(-c2c(F)cccc2Cl)c1C(=O)OCc1cnc(Cl)s1,"inconclusive: 29.1 µM [inhibitor, single point]"
12,CC(=O)Nc1ccc(NC(=O)c2ccccc2F)cc1,"inconclusive: 11.2 µM [activator, partial curve, poor fit]"
13,Cc1ccc(C(C(=O)NC2CCCCC2)N(Cc2ccco2)C(=O)Cc2c[nH]c3ccccc23)o1 (stereo not drawn),"inconclusive: 29.1 µM [inhibitor, single point]"
14,O=C1C=C(Nc2cccc3cccnc23)c2ccccc2C1=O,"inconclusive: 32.6 µM [inhibitor, single point]"
15,COC(=O)Oc1ccc(/C=C/C(=O)OC(C)C)cc1OC(=O)OC,"inconclusive: 7.31 µM [activator, partial curve, poor fit]"
16,Cc1cc(=O)oc2cc(OCc3ccc(C(=O)OCC(=O)N(C)C4CCS(=O)(=O)C4)cc3)ccc12 (stereo not drawn),"inconclusive: 20.6 µM [activator, partial curve, poor fit]"
17,COc1ccc(N2CCN(C(=O)C3CCCN(S(=O)(=O)c4c(C)noc4C)C3)CC2)cc1 (stereo not drawn),inactive
18,CCN1CCN(C(c2cccs2)C(C)NS(=O)(=O)c2ccc(Br)cc2)CC1 (stereo not drawn),inactive
19,COc1ccccc1NC(=O)CCCn1c(=S)[nH]c2ccccc2c1=O,"inconclusive: 9.2 µM [inhibitor, partial curve, poor fit]"
20,COc1ccc(NC(=O)C(OC(=O)c2cnccn2)c2ccccc2)cc1Cl (stereo not drawn),inactive
21,O=C(NCCC1=CCCCC1)c1ccc(Cl)c(S(=O)(=O)Nc2ccccc2)c1,"inconclusive: 20.6 µM [inhibitor, single point]"
22,O=C(NNC(=O)c1ccco1)c1ccccc1,"inconclusive: 18.4 µM [activator, single point]"
23,CCOc1ccc(CCNC(=O)C(CC)n2nc(C)n3c(cc4sccc43)c2=O)cc1OCC (stereo not drawn),"inconclusive: 20.6 µM [inhibitor, single point]"

row,Structure (SMILES),Potency
1,O=C(Nc1nnc(SCC(=O)N2CCCCC2)s1)c1cccs1,"inconclusive: 18.4 µM [activator, single point]"
2,CC(C)Cn1c(-c2cccs2)nc2nc3ccccc3nc21,"inconclusive: 23.1 µM [inhibitor, partial curve]"
3,Cc1cccc(NC2=NC(C)(C)N=C(N)N2)c1,"inconclusive: 16.4 µM [inhibitor, single point]"
4,O=C1NCCN(Cc2ccoc2)C1CC(=O)N(CCO)Cc1ccccc1 (stereo not drawn),inactive
5,Cc1cc(Cl)c(S(=O)(=O)N2CCN(c3ccccn3)CC2)cc1OCC(N)=O,"inconclusive: 29.1 µM [inhibitor, single point]"
6,Cn1nnnc1SCc1ccc(CSc2nnnn2C)cc1,inactive
7,CCN(C(=O)CSc1n[nH]c(N)n1)C1CCCCC1,inactive
8,COC(=O)c1c(C)[nH]c(C(C)=O)c1C,inactive
9,COc1cc(NS(=O)(=O)c2cn(C)cn2)cc(OC)c1OC,inactive
10,Cn1c(-c2ccc3c(c2)OCO3)cnc1N,inactive
11,CN(CC(=O)Nc1ccncc1)S(=O)(=O)c1ccc(Br)cc1,"inconclusive: 18.4 µM [inhibitor, partial curve]"
12,Cc1ccccc1NC(=O)Cc1nc(COC(=O)c2ccc(NC(N)=O)cc2)cs1,"inconclusive: 23.1 µM [inhibitor, partial curve]"
13,O=C(CCSc1ccc(F)cc1)Nc1ccc(-n2cnnn2)cc1,active: 18.4 µM
14,COc1cc2c3nnc(-c4ccc(F)cc4)c-3cn(Cc3ccc(F)cc3)c2cc1OC,"inconclusive: 16.4 µM [activator, single point]"
15,O=C(Nc1nccs1)c1ccc(Cl)nc1,"inconclusive: 14.6 µM [activator, partial curve]"
16,O=C(CSc1nnc(Nc2ccccc2)s1)Nc1ccc(S(=O)(=O)N2CCOCC2)cc1,"inconclusive: 23.1 µM [inhibitor, single point]"
17,Cc1ccc2cc(CN(Cc3ccccc3)Cc3nnnn3C3CCCC3)c(=O)[nH]c2c1,"inconclusive: 20.6 µM [inhibitor, single point]"
18,COc1ccccc1/C=N/NC(=O)c1ccc(NC(=O)c2ccccc2Br)cc1,"inconclusive: 8.2 µM [inhibitor, partial curve, poor fit]"
19,Cn1ccsc1=NC(=O)c1ccc(S(C)(=O)=O)cc1,"inconclusive: 14.6 µM [activator, partial curve]"
20,N/C(=N\OC(=O)Nc1cccc(C(F)(F)F)c1)c1ccno1,inactive
21,CCc1ccc(-n2c(=O)c3ccccc3n(CC(=O)NCc3ccco3)c2=O)cc1,inactive
22,CN1CCN(S(=O)(=O)c2cccc(C(=O)Nc3sccc3C(N)=O)c2)CC1,"inconclusive: 18.3 µM [inhibitor, single point]"
23,Cc1nnc(SCC(=O)Nc2nsc(-c3ccccc3)n2)s1,"inconclusive: 23.1 µM [inhibitor, partial curve, poor fit]"

row,Structure (SMILES),Potency
1,CCOc1cc(CNc2ccc3cn[nH]c3c2)ccc1OC,"inconclusive: 18.4 µM [inhibitor, partial curve]"
2,COc1ccc(Nc2nnc(-c3ccc(C)cc3)c3ccccc23)cc1C(=O)N1CCCCC1,"inconclusive: 25.9 µM [inhibitor, partial curve, poor fit]"
3,COc1cc(NC(=O)c2ccc3snnc3c2)cc(OC)c1,"inconclusive: 16.4 µM [activator, partial curve]"
4,Cc1cc(C(=O)N/N=C/c2ccc(Cl)c([N+](=O)[O-])c2)c(C)n1-c1ccc(F)cc1,"inconclusive: 32.6 µM [inhibitor, single point]"
5,COc1ccc(-c2noc(-c3cc4ccccc4oc3=O)n2)cc1,"inconclusive: 18.4 µM [activator, single point]"
6,N#C/C(=C\c1cccs1)C(=O)Nc1ccccn1,"inconclusive: 13 µM [activator, partial curve]"
7,c1ccc(CN=C2NN=C(c3cc4ccccc4o3)CS2)cc1,"inconclusive: 16.4 µM [activator, single point]"
8,COc1ccc(C2C(=O)N(CCc3ccccc3)CC(=O)N2C2CCCC2)cc1 (stereo not drawn),inactive
9,N/C(=N\OC(=O)COc1ccccc1Cl)c1ccc(Cl)cc1,"inconclusive: 7.31 µM [activator, partial curve]"
10,CC(=O)N1CCN(c2ccc(NC(=O)c3ccc4ccccc4c3)cc2)CC1,"inconclusive: 10.3 µM [activator, partial curve]"
11,CC(C)(C)c1ccc(Cn2nnc3c(=O)[nH]c(C4CCN(C(=O)Cc5cccs5)CC4)nc32)cc1,"inconclusive: 9.2 µM [inhibitor, partial curve, poor fit]"
12,O=C1S/C(=C\C=C\c2ccco2)C(=O)N1c1ccccc1,"inconclusive: 11.6 µM [activator, partial curve]"
13,Cc1nc(-c2ccc(Cl)cc2)sc1C1(C)CC(c2ccc(F)cc2)=NO1 (stereo not drawn),"inconclusive: 29.1 µM [activator, single point]"
14,CCOC(=O)N1CCN(C(=O)COc2ccc(S(=O)(=O)NC3CCCCC3)cc2C)CC1,"inconclusive: 18.4 µM [inhibitor, partial curve]"
15,COc1ccc(NC(=O)c2ccc3c(c2)NC(=O)CS3)cc1S(=O)(=O)Nc1ccc(Br)cc1,active: 11.6 µM
16,COc1ccc(S(=O)(=O)Nc2ccc(C)cn2)cc1,inactive
17,O=C1C=C(c2ccc3[nH]ccc3c2)C[C@@H](c2ccc(F)cc2)C1,"inconclusive: 29.1 µM [inhibitor, single point]"
18,O=c1c(-c2ccccc2)c[nH]n1-c1cccc([N+](=O)[O-])c1,"inconclusive: 6.51 µM [activator, full curve]"
19,COc1ccc(Cc2nnc(SCC(=O)Nc3ccc(N4CCOCC4)cc3)o2)cc1,inactive
20,O=C(/C=C/c1ccccc1)NC1CCCc2ccccc21 (stereo not drawn),"inconclusive: 16.4 µM [inhibitor, single point]"
21,Cc1ccc(NC(=O)/C=C/c2ccc([N+](=O)[O-])s2)c(C)c1,"inconclusive: 29.1 µM [inhibitor, single point]"
22,CC(CC(=O)N(CCC1=CCCCC1)c1c(N)n(Cc2ccccc2)c(=O)[nH]c1=O)c1ccccc1 (stereo not drawn),inactive

# Among those listed so far, three have a nitro group on carbon.
row,Structure (SMILES),Potency
4,Cc1cc(C(=O)N/N=C/c2ccc(Cl)c([N+](=O)[O-])c2)c(C)n1-c1ccc(F)cc1,"inconclusive: 32.6 µM [inhibitor, single point]"
18,O=c1c(-c2ccccc2)c[nH]n1-c1cccc([N+](=O)[O-])c1,"inconclusive: 6.51 µM [activator, full curve]"
21,Cc1ccc(NC(=O)/C=C/c2ccc([N+](=O)[O-])s2)c(C)c1,"inconclusive: 29.1 µM [inhibitor, single point]"

# From PubChem BioAssay AID504467 (National Center for Advancing Translational Sciences (NCATS), 2011)
